Results published in PMC10621131.
No constants are given. Whether binding was seen depends on the method and setting. In cells and extracts the contact can be indirect. Some results given as binding are weak or reduced against the parent protein; the word gives no strength.

By UniProt entry, the sequences of proteins in these tests, tags left out.
UniProt O88597: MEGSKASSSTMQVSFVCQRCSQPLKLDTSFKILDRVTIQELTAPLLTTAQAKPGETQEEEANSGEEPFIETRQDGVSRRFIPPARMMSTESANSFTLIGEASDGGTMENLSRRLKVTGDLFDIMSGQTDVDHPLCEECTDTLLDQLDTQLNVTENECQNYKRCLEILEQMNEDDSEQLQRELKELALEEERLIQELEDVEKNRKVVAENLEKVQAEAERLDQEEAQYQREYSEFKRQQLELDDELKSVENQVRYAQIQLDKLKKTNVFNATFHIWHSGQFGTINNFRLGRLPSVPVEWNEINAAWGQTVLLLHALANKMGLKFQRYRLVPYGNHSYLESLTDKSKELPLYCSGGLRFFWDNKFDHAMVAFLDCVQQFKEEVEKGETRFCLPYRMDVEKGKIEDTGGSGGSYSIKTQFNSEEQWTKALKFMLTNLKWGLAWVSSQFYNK

Target: Beclin-1 (mouse (endogenous in BMDMs)) (UniProt O88597)
Experiment: co-IP; BMDM lysates (Nonidet P40 lysis buffer with 10 mM nicotinamide and 10 uM TSA) incubated overnight at 4 °C with anti-Beclin-1 or NC IgG, Protein A/G magnetic beads 2 h, blot with anti-TRAF6; groups: blank, M1 (LPS 50 ng/mL, 24 h), M1 + si-NC, M1 + si-TRAF6

B1: tumor necrosis factor (TNF) receptor-associated factor 6 (TRAF6) (protein, UniProt P70196 1-530)
chain: MSLLNCENSCGSSQSSSDCCAAMAASCSAAVKDDSVSGSASTGNLSSSFMEEIQGYDVEFDPPLESKYECPICLMALREAVQTPCGHRFCKACIIKSIRDAGHKCPVDNEILLENQLFPDNFAKREILSLTVKCPNKGCLQKMELRHLEDHQVHCEFALVNCPQCQRPFQKCQVNTHIIEDCPRRQVSCVNCAVSMAYEEKEIHDQSCPLANIICEYCGTILIREQMPNHYDLDCPTAPIPCTFSVFGCHEKMQRNHLARHLQENTQLHMRLLAQAVHNVNLALRPCDAASPSRGCRPEDPNYEETIKQLESRLVRQDHQIRELTAKMETQSMYVGELKRTIRTLEDKVAEMEAQQCNGIYIWKIGNFGMHLKSQEEERPVVIHSPGFYTGRPGYKLCMRLHLQLPTAQRCANYISLFVHTMQGEYDSHLPWPFQGTIRLTILDQSEALIRQNHEEVMDAKPELLAFQRPTIPRNPKGFGYVTFMHLEALRQGTFIKDDTLLVRCEVSTRFDMGGLRKEGFQPRSTDAGV
- binding: binds
